The list shows a part of the results.
Test system: T1, CTL2-GFP (C. trachomatis L2/434/Bu, GFP-expressing)
T1 construct: L2/434/Bu, GFP-expressing
Set-up: species or system HeLa; Intracellular C. trachomatis growth in HeLa cells, bulk GFP fluorescence relative to DMSO
Conditions: bulk GFP, single well; 28.5 h, 10 µM; inhibitor

SMILES	% of control remaining [%]
CN1C(=O)CC2(C1=O)C(=O)N(CCN1C(=O)c3ccccc3C1=O)c1ccc(F)cc12 (centres unmarked) [CBK075451]	136.352
Cc1ccc(Cl)c(OCc2nnc(SCC(=O)O)n2N)c1 [CBK268992]	70.2219
Cc1cc2cc(F)ccc2n1CCCN1CCN(c2ccncc2)CC1 [CBK039119G]	125.445
CCNC(=S)NC1CC[C@@]2(C3=CC=CC4C=CC=CC34)CCN(C)[C@H]2C1 (some centres unmarked) [CBK003596C]	137.088
O=C(NC1CCCCC1)C1CCCN(C(=O)NCc2ccccn2)C1 (centres unmarked) [CBK305814]	100.415
CCc1ccc2oc(-c3ccc(NC(=O)COc4ccc(Cl)cc4Cl)cc3O)nc2c1 [CBK263424]	113.342
CCc1nc(-c2ccc(C)c(S(=O)(=O)N3CCN(c4ccccc4)CC3)c2)no1 [CBK294434]	154.995
O=C(O)c1ccc(NS(=O)(=O)c2ccc(C(F)(F)F)cc2[N+](=O)[O-])cc1 [CBK034063]	107.598
O=C(O)c1ccc(N2C(=O)CC(S/C(=N\c3ccccc3)Nc3ccccc3)C2=O)cc1 (centres unmarked) [CBK262191]	91.4257
CCNC(=S)NS(=O)(=O)c1ccc(C)cc1 [CBK288452]	140.878
O=C(c1ccnc2ccccc12)N1CCc2ccccc21 [CBK200283]	104.412
Cc1ccc(C(=O)N2CC(=O)N(CCO)C2)cc1 [CBK045864]	106.454
CCC(=O)Nc1ccc(C(=O)Nc2ccc(S(=O)(=O)N3CCCCC3)cc2)cc1 [CBK269549]	107.033
O=c1n(CCCNCc2ccc(Cl)cc2Cl)nc2n1CCCC2 [CBK305382]	133.642
N#CCCCN1CCC(Oc2nccnc2OCc2cc(Cl)cc(Cl)c2)CC1 [CBK153634]	105.686
CC(C)n1c(=O)n(CCN2CCCCC2)c2cccnc21 [CBK283932]	128.32
Nc1nc(N)nc(Cn2c(-c3nonc3N)nc3ccccc32)n1 [CBK263072]	100
CCCn1ncc(CN2CCCC(c3cc4cccnc4[nH]3)C2)c1C (centres unmarked) [CBK284957]	85.3522
COc1ccc(Oc2cncc(OC3CCN(CC(=O)Nc4c(C)cccc4C)C3)n2)cc1OC (centres unmarked) [CBK084403]	105.026
CC(=O)N1CCc2cc(C(=O)CN3CCC(c4ccccc4)C3)ccc21 (centres unmarked) [CBK282931]	100.76
CSc1nc(SCC(=O)N(c2ccccc2)c2ccccc2)c2c3c(sc2n1)CCC3 [CBK267715]	127.662
O=C(O)C1CCCN1S(=O)(=O)c1ccc(Cl)c(Cl)c1 (centres unmarked) [CBK217856]	124.835
COc1ccccc1CC(=O)NCCC(=O)N1CCN(c2ccc(F)cc2)CC1 [CBK298318]	146.644
Cc1csc(C(=O)N2CCCC(c3cc(O)cc(C)n3)C2)c1 (centres unmarked) [CBK283423]	133.64
Fc1ccccc1CN1CCN(Cc2ccccn2)CC1 [CBK265194G]	104.634

Some of these compounds in order of molar mass, rising:
SMILES	% of control remaining [%]
O=C(c1ccnc2ccccc12)N1CCc2ccccc21 [CBK200283]	104.412
CCCn1ncc(CN2CCCC(c3cc4cccnc4[nH]3)C2)c1C (centres unmarked) [CBK284957]	85.3522
O=C(NC1CCCCC1)C1CCCN(C(=O)NCc2ccccn2)C1 (centres unmarked) [CBK305814]	100.415
CCc1ccc2oc(-c3ccc(NC(=O)COc4ccc(Cl)cc4Cl)cc3O)nc2c1 [CBK263424]	113.342

(cont.)

SMILES	% of control remaining [%]
CCOC(=O)C1CCN(S(=O)(=O)c2cccs2)CC1 [CBK051137]	115.641
Cc1cc(COc2nccnc2N2CCN(CC3CCCCC3)CC2)no1 [CBK084205]	111.664
CC(=O)Nc1cccc(-c2cnc(N)c(N3CCC(C(=O)O)CC3)n2)c1 [CBK063657]	102.588
C=C(C)Cn1c(SCC(C)C)nnc1-c1ccccc1OC [CBK200071]	130.515
O=C(c1ccco1)N1CCN(c2cc(-c3cc4ccccc4o3)ncn2)CC1 [CBK091114]	175.233
COCCNC(=O)c1cc(-c2ccc(C)cc2)nc2c1cnn2C(C)C [CBK305033]	99.9237
COC(=O)Nc1sc2c(c1C(=O)N1CCOCC1)CCC(C)C2 (centres unmarked) [CBK307413]	138.799
Cc1ccc(-c2cc(C(=O)NCc3ccc(F)cc3Cl)n[nH]2)cc1 [CBK288102]	130.324
O=C(O)CC1C(=O)NCCN1Cc1ccc(-c2ccccc2)cc1 (centres unmarked) [CBK269812]	106.96
O=C1CC2(CCC3C(C(=O)NC4CCCC4)C32)Oc2ccccc21 (centres unmarked) [CBK284922]	119.447
O=[N+]([O-])c1cc2c(cc1CN1CCN(Cc3ccccc3)CC1)OCO2 [CBK261548]	100
COc1cc(OC)cc(C(=O)Nc2nnc(C(F)(F)F)s2)c1 [CBK099828]	98.2646
CC(NC(=O)c1cc(-c2ccccc2)nc2ccccc12)c1cccc(S(N)(=O)=O)c1 (centres unmarked) [CBK298285]	135.526
O=C(NC1CCCOC1)c1cc(-c2cccs2)no1 (centres unmarked) [CBK282565]	122.617
O=C(Nc1ccc2ncccc2c1)c1ccc(OC(F)(F)F)cc1 [CBK159815]	103.461
N#Cc1ccc(C(=O)N2Cc3nc[nH]c3C[C@H]2c2nc(-c3ccncc3)no2)cc1 [CBK288963]	92.6311
CC1CCN(Cc2c(C3CCNCC3)[nH]c3ncccc23)CC1 [CBK285022]	109.786
O=C(Nc1ccncc1)c1ccc(N2C(=O)c3ccccc3C2=O)cc1 [CBK287803]	90.7269
COc1ccc(CCOc2cnc(-c3ccccc3)c(N)n2)cc1 [CBK145065]	85.1249
O=C(NC1CCN(c2ncccn2)CC1)c1cccnc1O [CBK297739]	161.613
CN(C)c1cccc(C(=O)Nc2ccccc2N2CCOCC2)c1 [CBK295184]	105.031
COc1ccc([C@@]23CC[C@@H](NC(=O)N(C)c4ccc(Cl)cc4)C[C@@H]2N(C)CC3)cc1OC [CBK045682T]	119.608
O=C(Nc1ccc(C(F)(F)F)cc1)c1cc(Br)cnc1NCc1cccnc1 [CBK076419]	96.3289
Cc1cc(C(=O)Nc2nc(Cc3n[nH]c(=S)n3C)cs2)sc1C [CBK296687]	127.562
Cc1nc2n(c(=O)c1CCSc1ccccc1C(=O)O)CCCC2 [CBK286818]	147.55

Reference: article PMC12040169 (PLOS Biology, 2025)
